Source: publication PMC12506269

Sequences of proteins named here, by UniProt entry; tags and fusion partners are left off.
UniProt P06733: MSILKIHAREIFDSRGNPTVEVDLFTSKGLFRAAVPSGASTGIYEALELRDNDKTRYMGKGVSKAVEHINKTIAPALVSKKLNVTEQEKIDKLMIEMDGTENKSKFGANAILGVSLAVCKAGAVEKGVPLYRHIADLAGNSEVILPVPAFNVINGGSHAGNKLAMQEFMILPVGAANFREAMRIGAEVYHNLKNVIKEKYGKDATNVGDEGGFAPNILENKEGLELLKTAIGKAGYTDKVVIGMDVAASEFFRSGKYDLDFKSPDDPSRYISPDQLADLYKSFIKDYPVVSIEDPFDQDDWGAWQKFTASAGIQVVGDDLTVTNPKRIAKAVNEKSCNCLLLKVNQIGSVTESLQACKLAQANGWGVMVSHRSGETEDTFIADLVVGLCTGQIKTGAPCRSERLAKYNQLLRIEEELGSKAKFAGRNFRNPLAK

Target: T1, SENP1 (Sentrin-specific protease 1), endogenous in gastric cancer cells (human (endogenous in MKN-45 and HGC-27)) (UniProt Q9P0U3)
T1 sequence: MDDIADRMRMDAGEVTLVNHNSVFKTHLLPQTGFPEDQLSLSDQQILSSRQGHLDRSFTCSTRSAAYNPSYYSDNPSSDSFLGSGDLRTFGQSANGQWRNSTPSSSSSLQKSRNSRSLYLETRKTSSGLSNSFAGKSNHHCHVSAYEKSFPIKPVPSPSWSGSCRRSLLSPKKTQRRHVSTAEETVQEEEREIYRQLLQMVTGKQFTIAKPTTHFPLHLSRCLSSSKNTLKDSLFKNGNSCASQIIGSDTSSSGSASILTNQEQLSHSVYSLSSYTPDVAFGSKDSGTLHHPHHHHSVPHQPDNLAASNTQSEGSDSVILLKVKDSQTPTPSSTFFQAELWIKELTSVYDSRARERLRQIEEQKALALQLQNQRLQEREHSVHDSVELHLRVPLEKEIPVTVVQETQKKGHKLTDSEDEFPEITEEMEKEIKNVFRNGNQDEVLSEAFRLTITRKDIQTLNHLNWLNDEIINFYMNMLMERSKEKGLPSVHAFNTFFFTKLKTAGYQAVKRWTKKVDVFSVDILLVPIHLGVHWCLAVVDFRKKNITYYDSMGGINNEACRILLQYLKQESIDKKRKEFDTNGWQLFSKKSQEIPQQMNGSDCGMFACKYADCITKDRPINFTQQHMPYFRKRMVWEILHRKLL
Experiment: affinity purification with mass spectrometry; co-immunoprecipitation of SENP1, SDS-PAGE, silver staining, mass spectrometry of the gel; cells not given

With “α-enolase (ENO1), endogenous in gastric cancer cells (from UniProt P06733 1-434) (enzyme)” as the substance, how does the binding read?
The binding was “binds”.

Results are given in words; binding and its absence hold for the method and conditions named. In cells and extracts the contact can be indirect. Here binding means that the protein was enriched with, or labelled near, the bait; the list need not be complete.
